Experimental data as given in PMC11144275 (The Lancet. Infectious diseases, 2019).
Counter-ions that a name gives are not always drawn.

Experiments:
EBOV-Makona = type: cell-based, Ebola virus
EBOV-Ituri = type: cell-based, Ebola virus

Q: With CCN(CC)CCOc1ccc(C(=C(Cl)c2ccccc2)c2ccccc2)cc1 [Clomifene citrate] as the molecule, how does the “EBOV-Makona Selectivity index” value (EBOV-Makona) read?
A: The value was 42.

Q: And the “EBOV-Ituri Selectivity index” value (EBOV-Ituri)?
A: The value was 70.

Q: What does the source list for CC/C(=C(\c1ccccc1)c1ccc(OCCN(C)C)cc1)c1ccccc1 [Tamoxifen]?
A: EBOV-Makona Selectivity index (EBOV-Makona): 52; EBOV-Ituri Selectivity index (EBOV-Ituri): 151
